These results are taken from patent publication US4489062A, “Pharmaceutical compounds, preparation, use and intermediates therefor and their preparation” (priority 1982, dated 1984).

The test system of one assay is male TFW mice. The experiment in a line: Antagonism by quaternary opioid (N-methylnalorphine) in acetic acid writhing test. Conditions: ratio of equiactive doses in presence and absence of N-methylnalorphine; calculated from the linear regression of the dose/response curves. Type of assay: in vivo. An excerpt: (3) The analgesia induced by the peptides in the writhing test upon peripheral (parenteral) administration is antagonised by parenteral administration of the quaternary opioid antagonist N-allyl-normorphine methiodide (N-methylnalorphine; Koczka et al, Acta Chim. Acad. Sci. Hung. 51:393, 1967), i.e. a higher dose of the peptide is required in the presence than in the absence of the opioid for the same effect. As penetration of the blood-brain barrier by the quaternary compound is minimal (c.f. Tavani et al, European J. Pharmacol. 59:151-154, 1979) both the peptide-induced analgesia and the antagonism thereof are effected at the peripheral level.
Groups of six male TFW mice (Tuck) received by intraperitoneal injection either N-methylnalorphine (16 mg/kg) or saline vehicle (0.85%) control at a volume of 10 ml/kg followed after 20 mins. by a solution of the test compound in saline (10 ml/kg, subcutaneous) and after a further 30 mins. by 0.6% acetic acid (25 ml/kg, intraperitoneal). The total number of writhes/stretches per group was then determined over the 5 min. period commencing 15 mins. after administration of the acetic acid. […]

The next assay concerns female CD1 mice. The experiment in a line: Irritant-induced writhing test, acetic acid. The class given is in vivo. Conditions: Mus musculus, sc, 0.5 h; compound administered 30 mins. prior to acetic acid. The source says: (1) Both the hotplate test (Woolfe and MacDonald, J. Pharmacol. Exp. Ther. 80:300, 1944) and the irritant-induced writhing (stretch) test (Vander Wende and Margolin, Fed. Proc. 15:494, 1956) are standard in the art for the investigation of analgesic activity. Whereas it is believed that the pain in the latter can be ameliorated either centrally or peripherally, it is thought that that induced in the hotplate test is affected only at the central level.
(i) Acetic Acid. Groups of five female CD1 mice (Charles River) received either a test compound or saline vehicle (0.85%) control by subcutaneous injection 15 mins. (unless otherwise indicated) prior to an intraperitoneal injection of 0.6% acetic acid at a dose volume of 25 ml/kg. After a further 20 mins. the writhing or stretching movements induced by the irritant were counted over a 21/2 min. period, a writhe/stretch being identified as an extension of a hindlimb accompanied by constriction of the abdomen.
The ED50 figures for the test compounds were calculated, using linear regression analysis, as the dose in the presence of which only half the number of writhes/stretches was induced compared with the controls.

Take `CN1CC[C@]23c4c5ccc(O)c4O[C@H]2[C@@H](O)C=C[C@H]3[C@H]1C5` [Morphine, reference compound]: the “Dose ratio (a):(b)” value with male TFW mice is reported as 0.9. For the same molecule, the 50% effect level with female CD1 mice (ED50) was put at a dose of 0.45 mg/kg.
